Consider one molecule from patent US20090156489A1.

For experiment [1], the target named is T1, human Netrin-G1-his (purified Netrin-G1 protein with a C-terminus His tag) (human) (UniProt Q9Y2I2).
T1 sequence (looked up): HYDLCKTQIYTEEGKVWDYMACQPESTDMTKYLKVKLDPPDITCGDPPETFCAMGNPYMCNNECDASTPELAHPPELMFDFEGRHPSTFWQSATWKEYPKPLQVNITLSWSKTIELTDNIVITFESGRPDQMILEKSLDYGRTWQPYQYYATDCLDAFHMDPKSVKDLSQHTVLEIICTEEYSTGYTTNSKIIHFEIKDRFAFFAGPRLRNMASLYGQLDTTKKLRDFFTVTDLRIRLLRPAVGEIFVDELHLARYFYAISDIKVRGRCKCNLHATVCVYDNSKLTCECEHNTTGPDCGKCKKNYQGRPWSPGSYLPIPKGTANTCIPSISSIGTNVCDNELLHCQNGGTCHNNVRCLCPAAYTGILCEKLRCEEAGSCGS
Kind of experiment: solution binding assay, protein A bead pull-down, blot.

For experiment [2], the target named is T1, human Netrin-G1-his (purified Netrin-G1 protein with a C-terminus His tag) (human). Put plainly: solid phase binding assay: Netrin-G1-his coated in microtiter wells, NGL-1-Fc in solution, biotinylated anti-human IgG Fc, streptavidin-HRP, TMB, OD450; specific binding = total minus cMet-Fc binding.

No constants are given. Whether binding was seen depends on the method and setting. Some results given as binding are weak or reduced against the parent protein; the word gives no strength. Sequences can lack the tags named with a protein.

B1: human NGL-1-Fc (extracellular domain of human NGL-1 fused to human IgG1 Fc) (Fc fusion, not shown: a dimerising Fc or GST)
chain: QTCPSVCSCSNQFSKVICVRKNLREVPDGISTNTRLLNLHENQIQIIKVNSFKHLRHLEILQLSRNHIRTIEIGAFNGLANLNTLELFDNRLTTIPNGAFVYLSKLKELWLRNNPIESIPSYAFNRIPSLRRLDLGELKRLSYISEGAFEGLSNLRYLNLAMCNLREIPNLTPLIKLDELDLSGNHLSAIRPGSFQGLMHLQKLWMIQSQIQVIERNAFDNLQSLVEINLAHNNLTLLPHDLFTPLHHLERIHLHHNPWNCNCDILWLSWWIKDMAPSNTACCARCNTPPNLKGRYIGELDQNYFTCYAPVIVEPPADLNVTEGMAAELKCRASTSLTSVSWITPNGTVMTHGAYKVRIAVLSDGTLNFTNVTVQDTGMYTCMVSNSVGNTTASATLNVTAATTTPFSYFSTVTVETMEPSQDEARTTDNNVGPTPVVDWETTNVTTSLTPQSTRSTEKTFTIPVTDINSGIPGIDEVMKTTK
In the case of B1, the binding entry in experiment [1] and in experiment [2] was “binds” in each case.
